Laboratory results reported in patent US12010995B2, “Oxadiazoline compounds or salts thereof, agrohorticultural fungicides containing the compounds, and methods of using the same” (NIHON NOHYAKU CO., LTD., priority 2018, dated 2024).
Some results were stated once for a whole list of compounds, not compound by compound. Some compounds share one range, which may span the group rather than tell each member.

System: soybean rust (Phakopsora pachyrhizi)
Assay: Fungicidal efficacy test for soybean rust (foliage spray, preventive)
Assay type: in vivo
Conditions: treatment concentration 50 ppm; foliage spray on soybean (Enrei, 2-leaf stage), 10 ml per pot; assessed about 10 days after inoculation

Q: Which “control value (assessment criteria grade 0-10) against soybean rust” value (shortened to “control value”) does the source give for CCOC(=O)c1cnn(Cc2ccc(C3=NOC(C(F)(F)F)N3)cc2)c1 (centres unmarked) [3-1] here?
A: 8 (Control value 80-89%)

Q: Which “control value” value does the source give for O=c1ccc(Cl)cn1Cc1ccc(C2=NOC(C(F)(F)F)N2)cc1 (centres unmarked) [3-5] here?
A: 8 (Control value 80-89%)

Q: CCCC(=O)N(C)Cc1ccc(C2=NOC(C)(C(F)(F)F)N2)cc1 (centres unmarked) [1-12, N-methyl-N-{4-[5-methyl-5-(trifluoromethyl)-4,5-dihydro-1,2,4-oxadiazol-3-yl]benzyl}butylamide] was tested. Which “control value” value did it give?
A: 8 (Control value 80-89%)

Q: For FC(F)(F)C1NC(c2ccc(Cn3nc(Br)nc3Br)cc2)=NO1 (centres unmarked) [3-28], which “control value” value is on record?
A: 8 (Control value 80-89%)

Q: For FC(F)(F)C1NC(c2ccc(C(=S)NC3CC3)cc2)=NO1 (centres unmarked) [2-11], which “control value” value is on record?
A: 8 (Control value 80-89%)

Q: Which “control value” value does the source give for O=c1c(Oc2c(F)cccc2F)cncn1Cc1ccc(C2=NOC(C(F)(F)F)N2)cc1 (centres unmarked) [3-12] here?
A: 8 (Control value 80-89%)

Q: Which “control value” value does the source give for CCNC(=O)N(Cc1ccc(C2=NOC(C(F)(F)F)N2)cc1)OC (centres unmarked) [1-58] here?
A: 8 (Control value 80-89%)

Q: How did the “control value” value turn out when CSc1ncn(Cc2ccc(C3=NOC(C(F)(F)F)N3)cc2)c(=O)c1C#N (centres unmarked) [3-16] was run?
A: 8 (Control value 80-89%)

Q: For COCCCNC(=O)c1ccc(C2=NOC(C(F)(F)F)N2)cc1 (centres unmarked) [2-15], which “control value” value is on record?
A: 8 (Control value 80-89%)

Q: For COC(=O)c1ccc(C2=NOC(C(F)(F)F)N2)cc1 (centres unmarked) [2-18], which “control value” value is on record?
A: 8 (Control value 80-89%)

Q: Which “control value” value does the source give for CN(Cc1ccc(C2=NOC(C(F)(F)F)N2)cc1)C(=O)NC(C)(C)C (centres unmarked) [1-27] here?
A: 8 (Control value 80-89%)

Q: For CN(CC(F)F)C(=O)c1ccc(C2=NOC(C(F)(F)F)N2)cc1 (centres unmarked) [2-12], which “control value” value is on record?
A: 8 (Control value 80-89%)

Q: How did the “control value” value turn out when O=C(NCC(F)(F)F)c1ccc(C2=NOC(C(F)(F)F)N2)cc1 (centres unmarked) [2-5] was run?
A: 8 (Control value 80-89%)

Q: How did the “control value” value turn out when CCCS(=O)(=O)N(C)Cc1ccc(C2=NOC(C(F)(F)F)N2)cc1 (centres unmarked) [1-80] was run?
A: 8 (Control value 80-89%)

Q: CN(Cc1ccc(C2=NOC(C(F)(F)F)N2)cc1)C(=O)c1cnccn1 (centres unmarked) [1-35] was tested. Which “control value” value did it give?
A: 8 (Control value 80-89%)

Q: For CSCCc1cncn(Cc2ccc(C3=NOC(C(F)(F)F)N3)cc2)c1=O (centres unmarked) [3-11], which “control value” value is on record?
A: 8 (Control value 80-89%)

Q: Which “control value” value does the source give for CCOC(=O)c1ccc(C2=NOC(C(F)(F)F)N2)cc1 (centres unmarked) [2-13] here?
A: 8 (Control value 80-89%)

Q: For CON(Cc1ccc(C2=NOC(C(F)(F)F)N2)cc1)C(=O)NC(C)(C)C (centres unmarked) [1-28], which “control value” value is on record?
A: 8 (Control value 80-89%)

Q: How did the “control value” value turn out when O=c1ccncn1Cc1ccc(C2=NOC(C(F)(F)F)N2)cc1 (centres unmarked) [3-18] was run?
A: 8 (Control value 80-89%)

Q: Which “control value” value does the source give for O=c1ccc(C(F)(F)F)cn1Cc1ccc(C2=NOC(C(F)(F)F)N2)cc1 (centres unmarked) [3-35] here?
A: 8 (Control value 80-89%)

Q: For CNC(=O)c1ccc(C2=NOC(C(F)(F)F)N2)cc1 (centres unmarked) [2-20], which “control value” value is on record?
A: 8 (Control value 80-89%)

Q: How did the “control value” value turn out when CN(Cc1ccc(C2=NOC(C(F)(F)F)N2)cc1)C(=O)C1CCCCC1 (centres unmarked) [1-43] was run?
A: 8 (Control value 80-89%)

Q: How did the “control value” value turn out when Cc1cc(C)n(Cc2ccc(C3=NOC(C(F)(F)F)N3)cc2)n1 (centres unmarked) [3-3] was run?
A: 8 (Control value 80-89%)

Q: How did the “control value” value turn out when O=c1c(Br)cncn1Cc1ccc(C2=NOC(C(F)(F)F)N2)cc1 (centres unmarked) [3-6] was run?
A: 8 (Control value 80-89%)

Q: For CC(C)S(=O)(=O)N(C)Cc1ccc(C2=NOC(C(F)(F)F)N2)cc1 (centres unmarked) [1-15], which “control value” value is on record?
A: 8 (Control value 80-89%)

Q: How did the “control value” value turn out when CCCNC(=O)Oc1ccc(C2=NOC(C(F)(F)F)N2)cc1 (racemic) [4-3] was run?
A: 8 (Control value 80-89%)

Q: CS(=O)(=O)Cc1ccc(C2=NOC(C(F)(F)F)N2)cc1 (centres unmarked) [3-40] was tested. Which “control value” value did it give?
A: 8 (Control value 80-89%)

Q: O=[N+]([O-])c1cnn(Cc2ccc(C3=NOC(C(F)(F)F)N3)cc2)c1 (centres unmarked) [3-20] was tested. Which “control value” value did it give?
A: 8 (Control value 80-89%)

Q: Which “control value” value does the source give for CCOC(=O)c1ccn(Cc2ccc(C3=NOC(C(F)(F)F)N3)cc2)n1 (centres unmarked) [3-24] here?
A: 8 (Control value 80-89%)

Q: For CCOC(=O)c1cn(Cc2ccc(C3=NOC(C(F)(F)F)N3)cc2)cn1 (centres unmarked) [3-29], which “control value” value is on record?
A: 8 (Control value 80-89%)

Q: For CCNC(=S)N(C)Cc1ccc(C2=NOC(C(F)(F)F)N2)cc1 (centres unmarked) [1-63], which “control value” value is on record?
A: 8 (Control value 80-89%)

Q: With CCS(=O)(=O)N(C)Cc1ccc(C2=NOC(C(F)(F)F)N2)cc1 (centres unmarked) [1-76] as the compound, how does the “control value” value read?
A: 8 (Control value 80-89%)

Q: For CN(C(=O)c1ccc(C2=NOC(C(F)(F)F)N2)cc1)c1ccccc1 (centres unmarked) [2-1], which “control value” value is on record?
A: 8 (Control value 80-89%)

Q: Which “control value” value does the source give for CC(C)S(=O)(=O)Cc1ccc(C2=NOC(C(F)(F)F)N2)cc1 (centres unmarked) [3-2] here?
A: 8 (Control value 80-89%)

Q: For CN(C)C(=O)N(C)Cc1ccc(C2=NOC(C(F)(F)F)N2)cc1 (centres unmarked) [1-65], which “control value” value is on record?
A: 8 (Control value 80-89%)

Q: For CN(Cc1ccc(C2=NOC(C(F)(F)F)N2)cc1)C(=O)N1CCOCC1 (centres unmarked) [1-73], which “control value” value is on record?
A: 8 (Control value 80-89%)

Q: For COCCNC(=O)c1ccc(C2=NOC(C(F)(F)F)N2)cc1 (centres unmarked) [2-6], which “control value” value is on record?
A: 8 (Control value 80-89%)

Q: How did the “control value” value turn out when C[S+]([O-])Cc1ccc(C2=NOC(C(F)(F)F)N2)cc1 (centres unmarked) [3-39] was run?
A: 8 (Control value 80-89%)

Q: O=C(NCC1CC1)c1ccc(C2=NOC(C(F)(F)F)N2)cc1 (centres unmarked) [2-17] was tested. Which “control value” value did it give?
A: 8 (Control value 80-89%)

Q: How did the “control value” value turn out when FC(F)(F)C1NC(c2ccc(Cn3cncn3)cc2)=NO1 (centres unmarked) [3-17] was run?
A: 8 (Control value 80-89%)

Q: Which “control value” value does the source give for Cc1nnsc1C(=O)N(C)Cc1ccc(C2=NOC(C(F)(F)F)N2)cc1 (centres unmarked) [1-23] here?
A: 8 (Control value 80-89%)

Q: For O=C(NCC(F)F)c1ccc(C2=NOC(C(F)(F)F)N2)cc1 (centres unmarked) [2-4], which “control value” value is on record?
A: 8 (Control value 80-89%)

Q: Which “control value” value does the source give for FC(F)(F)C1NC(c2ccc(Cn3cc(Br)cn3)cc2)=NO1 (centres unmarked) [3-21] here?
A: 8 (Control value 80-89%)

Q: How did the “control value” value turn out when CO/N=C/NC(=O)c1ccc(C2=NOC(C(F)(F)F)N2)cc1 (centres unmarked) [2-22] was run?
A: 8 (Control value 80-89%)

Q: How did the “control value” value turn out when CCCC(=O)N(C)Cc1ccc(C2=NOC(C(F)(F)F)N2)cc1 (centres unmarked) [1-9] was run?
A: 8 (Control value 80-89%)

Q: With CNC(=S)c1ccc(C2=NOC(C(F)(F)F)N2)cc1 (centres unmarked) [2-21] as the compound, how does the “control value” value read?
A: 8 (Control value 80-89%)

Q: How did the “control value” value turn out when O=C(Nc1ccccc1F)c1ccc(C2=NOC(C(F)(F)F)N2)cc1 (racemic) [6-9] was run?
A: 8 (Control value 80-89%)

Q: How did the “control value” value turn out when COC(=O)c1nccn1Cc1ccc(C2=NOC(C(F)(F)F)N2)cc1 (centres unmarked) [3-30] was run?
A: 8 (Control value 80-89%)

Q: FC(F)(F)C1NC(c2ccc(Cn3cnc(Cl)c3Cl)cc2)=NO1 (centres unmarked) [3-32] was tested. Which “control value” value did it give?
A: 8 (Control value 80-89%)

Q: How did the “control value” value turn out when CCSc1ccccc1C(=O)N(C)Cc1ccc(C2=NOC(C(F)(F)F)N2)cc1 (centres unmarked) [1-55] was run?
A: 8 (Control value 80-89%)

Q: C=CCNC(=O)c1ccc(C2=NOC(C(F)(F)F)N2)cc1 (centres unmarked) [2-16] was tested. Which “control value” value did it give?
A: 8 (Control value 80-89%)

Q: O=C(Nc1cnccn1)c1ccc(C2=NOC(C(F)(F)F)N2)cc1 (racemic) [6-6] was tested. Which “control value” value did it give?
A: 8 (Control value 80-89%)

Q: How did the “control value” value turn out when O=C(c1ccc(C2=NOC(C(F)(F)F)N2)cc1)N1CCOCC1 (centres unmarked) [2-2] was run?
A: 8 (Control value 80-89%)

Q: For FC(F)(F)C1NC(c2ccc(Cn3cc(Cl)cn3)cc2)=NO1 (centres unmarked) [3-22], which “control value” value is on record?
A: 8 (Control value 80-89%)

Q: How did the “control value” value turn out when FC(F)(F)c1ccn(Cc2ccc(C3=NOC(C(F)(F)F)N3)cc2)n1 (centres unmarked) [3-4] was run?
A: 8 (Control value 80-89%)

Q: With CCCc1cncn(Cc2ccc(C3=NOC(C(F)(F)F)N3)cc2)c1=O (centres unmarked) [3-9] as the compound, how does the “control value” value read?
A: 8 (Control value 80-89%)

Q: Which “control value” value does the source give for CC[S+]([O-])Cc1ccc(C2=NOC(C(F)(F)F)N2)cc1 (centres unmarked) [3-41] here?
A: 8 (Control value 80-89%)

Q: Which “control value” value does the source give for O=C1CCCCN1Cc1ccc(C2=NOC(C(F)(F)F)N2)cc1 (centres unmarked) [3-46] here?
A: 8 (Control value 80-89%)

Q: With CN(Cc1ccc(C2=NOC(C(F)(F)F)N2)cc1)S(C)(=O)=O (centres unmarked) [1-1, N-methyl-N-{4-[5-(trifluoromethyl)-4,5-dihydro-1,2,4-oxadiazol-3-yl]benzyl}methansulfoneamide] as the compound, how does the “control value” value read?
A: 8 (Control value 80-89%)

Q: Which “control value” value does the source give for O=c1c2sccc2ncn1Cc1ccc(C2=NOC(C(F)(F)F)N2)cc1 (centres unmarked) [3-14] here?
A: 8 (Control value 80-89%)

Q: CON(Cc1ccc(C2=NOC(C(F)(F)F)N2)cc1)C(=O)C1CC1 (centres unmarked) [1-40] was tested. Which “control value” value did it give?
A: 8 (Control value 80-89%)

Q: Which “control value” value does the source give for CCCC(=O)N(Cc1ccc(C2=NOC(C(F)(F)F)N2)cc1)OC (centres unmarked) [1-10] here?
A: 8 (Control value 80-89%)

Q: For CCCC(=O)NC(OC)c1ccc(C2=NOC(C(F)(F)F)N2)cc1 (centres unmarked) [1-11], which “control value” value is on record?
A: 8 (Control value 80-89%)

Q: For CCOC(=O)c1ccc(=O)n(Cc2ccc(C3=NOC(C(F)(F)F)N3)cc2)c1 (centres unmarked) [3-19], which “control value” value is on record?
A: 8 (Control value 80-89%)

Q: How did the “control value” value turn out when Cc1cc(NC(=O)c2ccc(C3=NOC(C(F)(F)F)N3)cc2)no1 (racemic) [6-3] was run?
A: 8 (Control value 80-89%)

Q: For CC(C)COc1cncn(Cc2ccc(C3=NOC(C(F)(F)F)N3)cc2)c1=O (centres unmarked) [3-7], which “control value” value is on record?
A: 8 (Control value 80-89%)

Q: Which “control value” value does the source give for CN(Cc1ccc(C2=NOC(C(F)(F)F)N2)cc1)C(=O)c1ccco1 (centres unmarked) [1-31] here?
A: 8 (Control value 80-89%)

Q: Which “control value” value does the source give for CC(C)Cc1cncn(Cc2ccc(C3=NOC(C(F)(F)F)N3)cc2)c1=O (centres unmarked) [3-10] here?
A: 8 (Control value 80-89%)
